Measurements: article PMC2703784
These are yes or no findings as the source states them, for the method shown. Binding seen in cells or lysates may run through a third protein. Some binding calls cover weakened binding; strength is not graded here. Where a sequence is shown, tags or fusion partners need not be part of it.

The chains behind the UniProt entries cited, without tags or fusion partners. Residues count along the entry.
UniProt P27467, residues 19-352: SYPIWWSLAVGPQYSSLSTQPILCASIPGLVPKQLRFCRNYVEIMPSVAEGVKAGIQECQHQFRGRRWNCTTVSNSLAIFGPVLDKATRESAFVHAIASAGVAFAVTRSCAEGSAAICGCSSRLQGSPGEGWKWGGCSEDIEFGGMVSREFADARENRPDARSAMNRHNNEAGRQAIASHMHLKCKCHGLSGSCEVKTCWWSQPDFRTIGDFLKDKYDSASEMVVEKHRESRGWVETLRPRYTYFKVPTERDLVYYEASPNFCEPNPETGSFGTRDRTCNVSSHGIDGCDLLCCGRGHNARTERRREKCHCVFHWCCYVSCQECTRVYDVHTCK

Columns and labels:
[1] = biological target: Oto-modified Wnt3a (42 kDa hydrophobic isoform of Wnt3a-HA) (mouse) (UniProt P27467); assay: co-IP; Wnt3a immunopurified from 35S-labeled Oto+Wnt3a insoluble extracts by the same method; co-precipitated proteins seen by autoradiography of the gel
[2] = biological target: Wnt3a tagged with HA at its carboxy terminus (mouse) (UniProt P27467); assay: co-IP; Wnt3a-HA immunopurified on HA affinity matrix from soluble (RIPA) extracts of 293 cells co-expressing Oto and Wnt3a, non-denaturing conditions; Western blot
[3] = biological target: Oto-modified Wnt3a (42 kDa hydrophobic isoform of Wnt3a-HA) (mouse) (UniProt P27467); assay: co-IP; Wnt3a-HA immunoprecipitated on HA matrix from insoluble extracts of Oto+Wnt3a 293 cells (pellet in 1% SDS, 20 mM Hepes pH 7, 150 mM NaCl, 10 mM DTT, 10 min at 80°C, diluted 10x with SDS-free RIPA); Western blot
[4] = biological target: T1, Wnt1 tagged with HA at its carboxy terminus (mouse) (UniProt P04426); assay: co-IP; Oto and Wnt1 co-expressed in 293 cells; soluble and insoluble Wnt1; data not shown
T1 sequence: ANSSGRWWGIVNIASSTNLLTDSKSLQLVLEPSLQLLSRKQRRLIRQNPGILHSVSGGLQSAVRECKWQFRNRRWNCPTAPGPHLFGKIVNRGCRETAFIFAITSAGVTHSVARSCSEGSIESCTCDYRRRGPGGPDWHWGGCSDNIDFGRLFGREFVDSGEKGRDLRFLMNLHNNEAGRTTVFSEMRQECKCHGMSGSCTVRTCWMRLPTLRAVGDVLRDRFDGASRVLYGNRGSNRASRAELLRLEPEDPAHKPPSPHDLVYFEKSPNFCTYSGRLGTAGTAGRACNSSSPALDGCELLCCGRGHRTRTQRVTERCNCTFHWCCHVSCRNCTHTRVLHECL

Measured: binding

B1: Oto (mouse ortholog of the gpi deacylase PGAP1), 3xflag-tagged (protein, UniProt Q3UUQ7 1-922)
chain: MFLHSVNLWNLAFYVFMVFLATLGLWDVFFGFEENKCSMSYMFEYPEYQKIELPKKLTKRYPAYELYLYGEGSYAEEHKILPLTGIPVLFLPGNAGSYKQVRSIGSIALRKAEDIDFKYHFDFFSVNFNEELVALYGGSLQKQTKFVHECIKAILKLYKGQEFAPTSVAIIGHSMGGLVARALLTLKNFKQDLINLLVTQATPHVAPVMPLDRFITEFYMNVNNYWILNARHINLTTLSVAGGFRDYQVRSGLTFLPKLSHYTSALSVVSSAVPKTWVSTDHLSIVWCKQLQLTTIRAFFDLIDADTKQITQKPKKKLSVLNHHFIRHPAKQFEENPSIISDLTGTSMWVPVKVSRWSYVAYNESDKIYFAFPLANHRKIYTHAYCQSTMLDTNSWIFGCINSTSMCRQGVDLSWKAELLPTIKSLTLRLQDYPSLSHIVVYVPSVHGSKFVVDCEFFKKEARSMQLPVTHLFSFGLSSRKVTLNTNGLYYNIELLNFGQIYQAFKVNVVSKCTGSKEEITSIYKLHIPWSYEDSLTIAQVPSSTDISLKLHVAQPENDSHVALLKMYTSSDCQYEVTIKTSFPQILGQVVRFHGGALPAYVVSSILLAYGGQLYSLLSTGYCLEYSTILDKEAKPYKVDPFVIMIKFLLGYKWFKELWDAVLLPELDAIVLTSQSMCFPLVSLILFLFGTCTAYWSGLLSSTSVQLLSSLWLALKRPAELPKDIKVMSPDLPVLTVVFLIVSWTTCGALAILLSYLYYVFKVVHLQASLTTFKNNQPVNPKHSRRSEKKSNHHKDSAVQSLRLCANDAEDSLRMHSTVINLLTWVVLLSMPSLIYWLKNLRYYFKLSPDPCKPLAFLLIPAIAILGNTHTVSVKSSKLLKTVSQFPLPLAVGVIAFGSSHLYRVPCFVIIPLVFHALCNFM
binds: [1] | [2] | [3] | [4]
